Data on 2 substances can be found in paper PMC8405816.

Chains of the proteins cited; added tags and fusions are not shown.
UniProt P12956: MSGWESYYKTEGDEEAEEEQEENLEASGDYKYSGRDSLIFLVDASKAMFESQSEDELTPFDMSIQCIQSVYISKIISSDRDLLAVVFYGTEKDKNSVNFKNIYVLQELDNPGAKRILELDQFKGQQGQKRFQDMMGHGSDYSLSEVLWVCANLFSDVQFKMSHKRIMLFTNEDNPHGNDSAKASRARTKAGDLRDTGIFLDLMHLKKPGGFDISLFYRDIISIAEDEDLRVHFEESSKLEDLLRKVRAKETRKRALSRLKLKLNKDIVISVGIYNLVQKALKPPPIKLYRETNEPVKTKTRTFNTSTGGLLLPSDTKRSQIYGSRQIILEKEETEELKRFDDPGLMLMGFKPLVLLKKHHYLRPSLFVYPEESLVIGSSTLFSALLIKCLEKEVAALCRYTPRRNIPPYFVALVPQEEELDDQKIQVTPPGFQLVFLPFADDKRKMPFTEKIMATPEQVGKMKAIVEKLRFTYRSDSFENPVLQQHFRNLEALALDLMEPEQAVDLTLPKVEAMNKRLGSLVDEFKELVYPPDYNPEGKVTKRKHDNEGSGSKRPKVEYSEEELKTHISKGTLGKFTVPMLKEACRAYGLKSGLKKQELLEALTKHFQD
UniProt P13010: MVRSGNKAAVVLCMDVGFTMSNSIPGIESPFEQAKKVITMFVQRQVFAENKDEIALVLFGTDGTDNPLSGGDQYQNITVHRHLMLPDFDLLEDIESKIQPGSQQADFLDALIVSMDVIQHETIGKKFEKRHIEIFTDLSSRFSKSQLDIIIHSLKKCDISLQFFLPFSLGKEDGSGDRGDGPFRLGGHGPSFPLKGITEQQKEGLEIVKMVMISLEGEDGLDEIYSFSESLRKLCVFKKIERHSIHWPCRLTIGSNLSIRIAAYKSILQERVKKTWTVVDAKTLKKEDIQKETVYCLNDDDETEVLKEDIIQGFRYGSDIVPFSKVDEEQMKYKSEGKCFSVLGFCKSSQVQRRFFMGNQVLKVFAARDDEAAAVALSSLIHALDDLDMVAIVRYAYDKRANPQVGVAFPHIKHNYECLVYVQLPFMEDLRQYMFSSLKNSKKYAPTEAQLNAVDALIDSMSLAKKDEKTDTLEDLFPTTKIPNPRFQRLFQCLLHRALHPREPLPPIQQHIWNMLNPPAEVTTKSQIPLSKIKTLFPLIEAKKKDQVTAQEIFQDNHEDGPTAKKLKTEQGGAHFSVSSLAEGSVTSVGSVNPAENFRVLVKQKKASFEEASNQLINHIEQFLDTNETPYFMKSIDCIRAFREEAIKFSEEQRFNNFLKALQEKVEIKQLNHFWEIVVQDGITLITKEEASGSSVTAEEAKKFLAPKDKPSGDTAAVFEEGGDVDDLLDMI

No constants are given. Whether binding was seen depends on the method and setting. In cells and extracts the contact can be indirect. Here binding means that the protein was enriched with, or labelled near, the bait; the list need not be complete. For some of these results: Where a sequence is shown, tags or fusion partners need not be part of it.

Experiment [1] concerns the target T1, VAV2 (endogenous) (human (endogenous in KYSE30, KYSE150, KYSE450)) (UniProt P52735).
T1 sequence: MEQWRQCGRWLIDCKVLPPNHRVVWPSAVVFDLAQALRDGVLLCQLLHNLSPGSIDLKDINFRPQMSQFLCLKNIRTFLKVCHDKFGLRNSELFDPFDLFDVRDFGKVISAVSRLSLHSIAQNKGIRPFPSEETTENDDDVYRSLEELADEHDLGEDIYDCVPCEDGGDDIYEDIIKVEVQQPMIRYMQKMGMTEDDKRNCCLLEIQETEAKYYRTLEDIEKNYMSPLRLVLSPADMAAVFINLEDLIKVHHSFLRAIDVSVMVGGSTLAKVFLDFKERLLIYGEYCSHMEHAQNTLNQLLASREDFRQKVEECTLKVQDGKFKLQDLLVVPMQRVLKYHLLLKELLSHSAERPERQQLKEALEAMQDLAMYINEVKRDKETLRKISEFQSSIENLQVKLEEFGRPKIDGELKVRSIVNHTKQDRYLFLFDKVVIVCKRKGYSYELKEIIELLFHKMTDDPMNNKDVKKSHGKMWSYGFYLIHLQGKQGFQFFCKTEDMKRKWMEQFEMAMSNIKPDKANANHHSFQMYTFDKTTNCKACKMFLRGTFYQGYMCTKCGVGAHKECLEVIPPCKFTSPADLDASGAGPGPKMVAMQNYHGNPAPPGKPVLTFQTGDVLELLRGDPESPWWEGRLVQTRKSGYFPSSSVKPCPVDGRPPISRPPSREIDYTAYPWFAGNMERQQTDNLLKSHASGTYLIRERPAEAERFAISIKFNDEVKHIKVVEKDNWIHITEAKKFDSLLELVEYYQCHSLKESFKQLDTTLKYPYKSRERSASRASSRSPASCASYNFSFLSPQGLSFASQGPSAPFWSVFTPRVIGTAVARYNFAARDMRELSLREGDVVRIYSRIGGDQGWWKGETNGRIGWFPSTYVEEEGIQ
In words: affinity purification with mass spectrometry; lysates of natural KYSE30 and KYSE450 cells, immunoprecipitated with anti-VAV2 antibody, mass spectrometry.

In a further experiment the target is T2, FLAG-tagged VAV2 (UniProt P52735).
T2 sequence: T1 sequence
In words: affinity purification with mass spectrometry; lysates of KYSE150 cells overexpressing FLAG-VAV2, immunoprecipitated with anti-FLAG antibody (IgG as negative control), mass spectrometry.

On to “Ku70 (endogenous) (from UniProt P12956 1-609)”, for which the binding entry (in experiment [1]; with FLAG-tagged VAV2) was “binds” throughout.
Take “Ku80 (endogenous) (from UniProt P13010 1-732)”: the binding entry (in experiment [1]; with FLAG-tagged VAV2) was “binds” throughout.
